Counter-ions that a name gives are not always drawn. The list shows a part of the results. The calls rarely recur for the same compound in another form.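 Kinases, fused to nanoluciferase, were expressed in K562 cells; luminescence was measured every 4 h from 2 to 18 h as percent of control (DMSO = 100%, positive control = 0%). A time point is decreased if signal falls significantly (2 sigma). Hits were called by the authors by a rule that is not shown; the count of time points alone does not decide it.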
How the values were obtained:
Test in all cases: number of time points (of 5) at which kinase-Nluc abundance scored as decreased, DMSO-normalised (count); higher = more persistent destabilization
Settings in all cases: K562; 2-18 h
LMTK2 = LMTK2 (UniProt Q8IWU2)
LYN = LYN (UniProt P07948)
MAP2K1 = MAP2K1 (UniProt Q02750)
MAP2K2 = MAP2K2 (UniProt P36507)
MAP4K2 = MAP4K2 (UniProt Q12851)
MAPK1 = MAPK1 (UniProt P28482)
MAPK4 = MAPK4 (UniProt P31152)
MAPKAPK2 = MAPKAPK2 (UniProt P49137)
MKNK1 = MKNK1 (UniProt Q9BUB5)
NTRK2 = NTRK2 (UniProt Q16620)
NTRK3 = NTRK3 (UniProt Q16288)
PAK4 = PAK4 (UniProt O96013)
PBK = PBK (UniProt Q96KB5)
PDGFRB = PDGFRB (UniProt P09619)
PDK1 = PDK1 (UniProt Q15118)
PDPK1 = PDPK1 (UniProt O15530)
PIK4CA = PIK4CA (UniProt P42356)
PIK4CB = PIK4CB (UniProt Q9UBF8)
PLK1 = PLK1 (UniProt P53350)
PRKAA1 = PRKAA1 (UniProt Q13131)

Chains of the proteins cited; added tags and fusions are not shown. Lines headed by an entry give the natural chain unless they say otherwise; changes in a name come on top.
UniProt P49137, whole entry, looked up: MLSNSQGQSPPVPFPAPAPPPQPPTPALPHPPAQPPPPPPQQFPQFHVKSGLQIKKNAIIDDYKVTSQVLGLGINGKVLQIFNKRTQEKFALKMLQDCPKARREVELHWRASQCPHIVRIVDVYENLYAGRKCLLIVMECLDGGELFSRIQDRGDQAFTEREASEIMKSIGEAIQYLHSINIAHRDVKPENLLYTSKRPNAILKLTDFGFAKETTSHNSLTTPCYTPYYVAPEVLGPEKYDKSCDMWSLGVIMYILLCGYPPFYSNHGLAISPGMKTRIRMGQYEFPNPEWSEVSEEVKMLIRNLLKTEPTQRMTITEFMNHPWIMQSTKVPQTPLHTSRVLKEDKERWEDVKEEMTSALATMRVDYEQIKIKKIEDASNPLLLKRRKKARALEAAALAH
UniProt Q9BUB5: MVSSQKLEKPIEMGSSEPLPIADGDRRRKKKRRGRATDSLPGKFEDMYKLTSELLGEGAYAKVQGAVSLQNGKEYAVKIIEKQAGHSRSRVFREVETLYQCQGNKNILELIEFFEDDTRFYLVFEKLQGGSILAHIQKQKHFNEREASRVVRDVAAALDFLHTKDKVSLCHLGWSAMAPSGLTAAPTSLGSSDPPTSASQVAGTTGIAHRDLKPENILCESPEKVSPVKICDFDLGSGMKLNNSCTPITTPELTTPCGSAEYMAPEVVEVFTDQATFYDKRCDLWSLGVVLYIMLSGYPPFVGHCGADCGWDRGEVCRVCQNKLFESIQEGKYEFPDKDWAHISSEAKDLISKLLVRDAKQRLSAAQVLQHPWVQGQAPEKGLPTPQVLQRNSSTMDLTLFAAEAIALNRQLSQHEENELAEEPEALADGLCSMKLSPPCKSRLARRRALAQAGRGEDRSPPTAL
UniProt Q16620, whole entry, looked up: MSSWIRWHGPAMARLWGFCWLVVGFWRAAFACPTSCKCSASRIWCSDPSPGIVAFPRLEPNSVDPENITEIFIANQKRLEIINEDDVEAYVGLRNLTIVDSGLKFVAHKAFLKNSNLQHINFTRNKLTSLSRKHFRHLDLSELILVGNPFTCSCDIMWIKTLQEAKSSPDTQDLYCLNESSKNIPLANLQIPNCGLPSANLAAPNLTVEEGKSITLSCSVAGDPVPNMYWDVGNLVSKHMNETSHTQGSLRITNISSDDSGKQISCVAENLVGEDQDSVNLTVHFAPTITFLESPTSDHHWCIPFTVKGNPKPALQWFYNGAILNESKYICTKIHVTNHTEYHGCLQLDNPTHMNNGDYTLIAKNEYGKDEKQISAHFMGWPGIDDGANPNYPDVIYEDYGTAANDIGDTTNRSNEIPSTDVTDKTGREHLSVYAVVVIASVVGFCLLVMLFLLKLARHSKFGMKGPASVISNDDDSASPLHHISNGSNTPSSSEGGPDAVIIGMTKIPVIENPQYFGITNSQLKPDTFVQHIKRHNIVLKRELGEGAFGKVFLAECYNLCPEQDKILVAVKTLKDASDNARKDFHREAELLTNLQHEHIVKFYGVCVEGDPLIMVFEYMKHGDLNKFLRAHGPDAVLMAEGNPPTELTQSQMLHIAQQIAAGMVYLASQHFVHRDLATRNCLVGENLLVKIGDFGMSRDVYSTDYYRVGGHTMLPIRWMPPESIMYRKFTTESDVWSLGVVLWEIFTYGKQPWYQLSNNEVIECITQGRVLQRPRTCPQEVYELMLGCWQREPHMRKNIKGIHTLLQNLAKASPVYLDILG
UniProt P09619, whole entry: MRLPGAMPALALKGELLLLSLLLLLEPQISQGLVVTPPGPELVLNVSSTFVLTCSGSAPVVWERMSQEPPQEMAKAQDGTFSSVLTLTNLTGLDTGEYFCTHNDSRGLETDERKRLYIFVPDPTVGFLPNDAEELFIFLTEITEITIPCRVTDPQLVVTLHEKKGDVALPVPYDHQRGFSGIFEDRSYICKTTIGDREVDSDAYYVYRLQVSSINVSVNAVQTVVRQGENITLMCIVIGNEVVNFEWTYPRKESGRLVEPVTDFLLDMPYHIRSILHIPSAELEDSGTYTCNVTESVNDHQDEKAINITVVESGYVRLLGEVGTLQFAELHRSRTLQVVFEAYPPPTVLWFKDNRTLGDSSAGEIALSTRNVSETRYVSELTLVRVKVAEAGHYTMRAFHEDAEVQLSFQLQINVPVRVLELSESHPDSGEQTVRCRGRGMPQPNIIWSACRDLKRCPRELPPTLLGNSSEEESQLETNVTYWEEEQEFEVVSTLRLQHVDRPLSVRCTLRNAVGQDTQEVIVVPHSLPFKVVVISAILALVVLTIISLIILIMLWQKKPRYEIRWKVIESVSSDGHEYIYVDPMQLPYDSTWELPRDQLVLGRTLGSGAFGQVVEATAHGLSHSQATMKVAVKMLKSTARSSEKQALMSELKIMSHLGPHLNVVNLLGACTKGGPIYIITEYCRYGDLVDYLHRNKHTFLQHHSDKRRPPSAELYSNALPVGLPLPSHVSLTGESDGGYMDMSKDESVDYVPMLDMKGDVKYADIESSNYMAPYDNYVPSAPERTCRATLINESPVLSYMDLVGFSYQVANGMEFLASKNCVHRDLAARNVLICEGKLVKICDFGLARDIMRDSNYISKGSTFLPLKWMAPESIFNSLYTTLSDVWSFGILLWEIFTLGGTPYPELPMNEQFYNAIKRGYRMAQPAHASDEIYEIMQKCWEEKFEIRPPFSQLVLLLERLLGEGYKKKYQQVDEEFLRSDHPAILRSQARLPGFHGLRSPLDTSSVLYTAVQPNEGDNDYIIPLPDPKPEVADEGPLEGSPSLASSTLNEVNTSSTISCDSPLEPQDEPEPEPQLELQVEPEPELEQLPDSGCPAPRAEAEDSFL
UniProt Q15118, whole entry, looked up: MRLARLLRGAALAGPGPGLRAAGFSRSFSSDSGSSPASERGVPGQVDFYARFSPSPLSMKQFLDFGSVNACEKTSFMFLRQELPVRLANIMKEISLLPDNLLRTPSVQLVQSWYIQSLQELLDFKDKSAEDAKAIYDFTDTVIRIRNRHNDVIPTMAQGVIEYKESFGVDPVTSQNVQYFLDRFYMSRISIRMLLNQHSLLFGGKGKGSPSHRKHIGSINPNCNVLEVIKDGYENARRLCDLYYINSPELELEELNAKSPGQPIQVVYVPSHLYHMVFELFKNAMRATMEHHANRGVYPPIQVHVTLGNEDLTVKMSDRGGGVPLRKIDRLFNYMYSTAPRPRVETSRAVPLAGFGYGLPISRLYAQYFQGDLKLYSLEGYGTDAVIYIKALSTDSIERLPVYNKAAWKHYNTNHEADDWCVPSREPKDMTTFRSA
UniProt P42356, whole entry, looked up: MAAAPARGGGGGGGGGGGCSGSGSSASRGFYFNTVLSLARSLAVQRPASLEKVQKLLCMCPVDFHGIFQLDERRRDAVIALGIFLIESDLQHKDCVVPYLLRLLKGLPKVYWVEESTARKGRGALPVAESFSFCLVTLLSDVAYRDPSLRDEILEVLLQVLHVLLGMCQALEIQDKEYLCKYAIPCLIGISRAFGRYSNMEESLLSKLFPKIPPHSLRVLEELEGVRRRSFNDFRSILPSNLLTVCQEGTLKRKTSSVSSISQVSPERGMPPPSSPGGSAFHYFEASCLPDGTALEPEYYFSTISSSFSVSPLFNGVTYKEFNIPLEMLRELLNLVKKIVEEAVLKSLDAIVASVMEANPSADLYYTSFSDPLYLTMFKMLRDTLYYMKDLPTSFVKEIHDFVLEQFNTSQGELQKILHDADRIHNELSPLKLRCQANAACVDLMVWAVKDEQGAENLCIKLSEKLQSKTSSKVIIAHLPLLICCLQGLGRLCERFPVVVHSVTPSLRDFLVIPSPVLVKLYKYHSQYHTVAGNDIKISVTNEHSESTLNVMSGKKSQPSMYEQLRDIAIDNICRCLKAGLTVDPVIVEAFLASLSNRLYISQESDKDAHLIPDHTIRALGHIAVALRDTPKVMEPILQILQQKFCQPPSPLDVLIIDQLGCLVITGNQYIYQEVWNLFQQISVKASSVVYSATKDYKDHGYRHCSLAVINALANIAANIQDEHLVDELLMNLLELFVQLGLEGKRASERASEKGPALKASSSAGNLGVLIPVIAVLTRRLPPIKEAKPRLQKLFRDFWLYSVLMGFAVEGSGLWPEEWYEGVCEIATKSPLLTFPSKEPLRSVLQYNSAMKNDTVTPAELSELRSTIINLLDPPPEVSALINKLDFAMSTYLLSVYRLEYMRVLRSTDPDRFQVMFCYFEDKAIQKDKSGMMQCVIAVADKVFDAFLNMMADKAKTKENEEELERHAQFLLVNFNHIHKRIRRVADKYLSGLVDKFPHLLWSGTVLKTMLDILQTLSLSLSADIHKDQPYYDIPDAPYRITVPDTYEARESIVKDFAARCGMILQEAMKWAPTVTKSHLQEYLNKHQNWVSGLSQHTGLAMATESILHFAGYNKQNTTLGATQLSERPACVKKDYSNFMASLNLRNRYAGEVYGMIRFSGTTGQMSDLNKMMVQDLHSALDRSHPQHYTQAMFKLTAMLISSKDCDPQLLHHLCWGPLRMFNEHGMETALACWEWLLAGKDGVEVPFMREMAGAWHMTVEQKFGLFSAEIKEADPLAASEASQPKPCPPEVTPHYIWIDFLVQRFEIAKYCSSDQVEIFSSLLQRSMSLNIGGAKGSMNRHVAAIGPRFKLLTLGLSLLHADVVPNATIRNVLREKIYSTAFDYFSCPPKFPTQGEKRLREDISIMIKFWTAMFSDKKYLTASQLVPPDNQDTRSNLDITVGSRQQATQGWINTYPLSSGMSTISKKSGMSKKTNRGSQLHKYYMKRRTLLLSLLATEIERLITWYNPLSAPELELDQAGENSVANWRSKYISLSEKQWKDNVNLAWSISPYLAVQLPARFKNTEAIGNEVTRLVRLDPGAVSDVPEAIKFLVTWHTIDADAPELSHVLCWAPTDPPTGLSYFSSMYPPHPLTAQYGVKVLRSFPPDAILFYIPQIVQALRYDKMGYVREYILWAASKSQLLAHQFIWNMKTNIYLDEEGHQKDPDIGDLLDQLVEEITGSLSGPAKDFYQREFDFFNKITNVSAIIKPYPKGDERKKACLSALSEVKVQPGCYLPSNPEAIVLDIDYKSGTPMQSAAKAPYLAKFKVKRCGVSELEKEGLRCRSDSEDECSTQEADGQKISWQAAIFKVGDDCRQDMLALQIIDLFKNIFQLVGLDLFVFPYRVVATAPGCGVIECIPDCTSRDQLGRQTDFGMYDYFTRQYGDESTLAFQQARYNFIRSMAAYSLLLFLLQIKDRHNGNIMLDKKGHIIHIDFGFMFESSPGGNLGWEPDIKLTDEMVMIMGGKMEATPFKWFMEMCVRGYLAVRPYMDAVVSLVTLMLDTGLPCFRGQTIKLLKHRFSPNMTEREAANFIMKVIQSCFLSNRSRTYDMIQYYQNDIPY
UniProt P53350, whole entry: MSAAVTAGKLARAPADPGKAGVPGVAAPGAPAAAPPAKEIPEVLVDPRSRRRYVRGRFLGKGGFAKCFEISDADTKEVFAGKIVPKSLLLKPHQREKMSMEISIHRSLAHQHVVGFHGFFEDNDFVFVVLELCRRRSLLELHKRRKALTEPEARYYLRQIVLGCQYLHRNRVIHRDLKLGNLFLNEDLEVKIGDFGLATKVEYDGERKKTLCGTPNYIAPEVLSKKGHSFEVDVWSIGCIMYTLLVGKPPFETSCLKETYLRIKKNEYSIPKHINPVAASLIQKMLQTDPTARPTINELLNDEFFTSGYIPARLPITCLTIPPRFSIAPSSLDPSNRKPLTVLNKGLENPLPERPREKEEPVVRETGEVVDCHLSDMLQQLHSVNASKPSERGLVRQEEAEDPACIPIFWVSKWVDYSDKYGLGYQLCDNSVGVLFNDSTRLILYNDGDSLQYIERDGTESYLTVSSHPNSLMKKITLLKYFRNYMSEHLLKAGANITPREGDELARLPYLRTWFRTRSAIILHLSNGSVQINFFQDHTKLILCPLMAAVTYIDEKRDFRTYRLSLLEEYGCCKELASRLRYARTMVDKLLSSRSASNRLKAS
UniProt Q13131: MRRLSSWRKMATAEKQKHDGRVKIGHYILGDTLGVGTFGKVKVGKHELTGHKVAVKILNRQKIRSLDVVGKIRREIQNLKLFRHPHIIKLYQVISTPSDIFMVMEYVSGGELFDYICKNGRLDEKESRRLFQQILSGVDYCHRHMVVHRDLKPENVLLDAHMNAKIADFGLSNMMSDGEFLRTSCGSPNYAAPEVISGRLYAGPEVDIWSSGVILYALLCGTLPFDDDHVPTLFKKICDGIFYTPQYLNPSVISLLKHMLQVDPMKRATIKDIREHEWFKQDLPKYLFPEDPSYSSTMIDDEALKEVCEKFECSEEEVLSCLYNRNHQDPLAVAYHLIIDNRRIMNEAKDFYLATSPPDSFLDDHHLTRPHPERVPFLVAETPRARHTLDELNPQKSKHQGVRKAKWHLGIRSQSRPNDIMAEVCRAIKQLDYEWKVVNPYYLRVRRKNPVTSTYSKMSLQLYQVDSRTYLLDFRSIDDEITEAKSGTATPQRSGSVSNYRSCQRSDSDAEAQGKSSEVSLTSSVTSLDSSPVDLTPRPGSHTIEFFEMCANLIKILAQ

Measured: number of time points

O=S(=O)(c1ccc(O)cc1O)N1Cc2cc(O)cc(O)c2C1 (10 µM)
0: all assays above

CCCCC(=O)OCC(=O)[C@]1(O)Cc2c(O)c3c(c(O)c2[C@@H](O[C@H]2C[C@H](NC(=O)C(F)(F)F)[C@H](O)[C@H](C)O2)C1)C(=O)c1c(OC)cccc1C3=O [Valrubicin] (10 µM)
0: all assays above

CCNC(=O)Nc1ccc(-c2nc3c(c(N4CCOC[C@@H]4C)n2)CCN(C2COC2)C3)cc1 (2.5 µM)
1: PDPK1 | PRKAA1
0: all other assays above

O=C1Cc2ccccc2N1 [Oxindole] (10 µM)
0: all assays above

CC(C1CC1)n1cnc2c(NCc3cccc(C(F)(F)F)c3)nc(NCCN(C)C)nc21 (stereo not drawn) (10 µM)
0: all assays above

CC(C)=CCC[C@](C)(O[C@@H]1O[C@H](CO[C@@H]2O[C@H](CO)[C@@H](O)[C@H](O)[C@H]2O)[C@@H](O)[C@H](O)[C@H]1O)[C@H]1CC[C@]2(C)[C@@H]1[C@H](O)C[C@@H]1[C@@]3(C)CC[C@H](O[C@@H]4O[C@H](CO)[C@@H](O)[C@H](O)[C@H]4O[C@@H]4O[C@H](CO)[C@@H](O)[C@H](O)[C@H]4O)C(C)(C)[C@@H]3CC[C@]12C [Ginsenoside Rb1] (10 µM)
not listed: PRKAA1
0: all other assays above

CS(=O)(=O)c1cccc(CNc2nc(Nc3ccc4c(c3)CCC(=O)N4)ncc2C(F)(F)F)c1 (10 µM)
0: all assays above

CC(C)(C)S(=O)(=O)c1cc2c(Nc3ccc4scnc4c3)ncnc2cc1OCCOP(=O)(O)O (2 µM)
0: all assays above

CN1CCC(Nc2nc(Nc3ccc(Oc4ccccc4)cc3)c3c(=O)[nH]cc(Br)c3n2)CC1 (2.5 µM)
1: MAPK4
0: all other assays above

COc1cc(N2CCC(O)CC2)ccc1Nc1nc(Nc2ccccc2S(=O)(=O)C(C)C)c2[nH]cnc2n1 (10 µM)
0: all assays above

O=C(NCc1ccn[nH]1)c1cc([C@@H]2CCNC[C@H]2COc2ccc3c(c2)OCO3)ccc1F [GRK2-IN-1 (hydrochloride)] (10 µM)
0: all assays above

COc1cc2nccc(Nc3cccc(Oc4ccccc4)c3)c2cc1OC (2.5 µM)
1: PDPK1
0: all other assays above

CN(C[C@@H]1COCCO1)S(=O)(=O)Nc1ccc2ccc3ncc(-c4cnn(C)c4)cc3c(=O)c2c1 (2.5 µM)
0: all assays above

O=C(O)c1c[nH]c2cc(Cl)c(-c3ccc(C4(O)CCC4)cc3)cc12 (10 µM)
not listed: PRKAA1
0: all other assays above

COc1ccc(Cl)cc1N(CC(=O)Nc1ccc2c(c1)OCO2)S(=O)(=O)c1ccccc1 (2.5 µM)
0: all assays above

CCn1c(N)c(C(=O)NC)c(=O)c2ccc(C#CC(C)(O)COC)nc21 (stereo not drawn) (10 µM)
0: all assays above

O=C(CCl)c1c[nH]c2ccccc12 (2.5 µM)
0: all assays above

Nc1ccc(-c2cccc(C(=O)Nc3cnc4nc(N5CCOCC5)oc4c3)n2)cn1 (10 µM)
0: all assays above

CC(C)c1cc2c(c(O)c1O)[C@@]13CCCC(C)(C)[C@@H]1C[C@@H]2OC3=O [Carnosol] (2.5 µM)
0: all assays above

Cc1ccc2c(NS(=O)(=O)c3ccccc3Cl)cccc2c1Oc1ncccc1-c1ccnc(N[C@H]2CCCNC2)n1 (2.5 µM)
0: all assays above

CN1CCN(Cc2ccc(-c3cn(C4CCC(O)CC4)c4nc(NCCC5CC5)ncc34)cc2)CC1 (stereo not drawn) (2.5 µM)
3: LMTK2 | NTRK3
1: LYN | MKNK1 | PRKAA1
0: all other assays above

O=c1cc(N2CCOCC2)oc2c(-c3cccc4c3sc3ccccc34)cccc12 (10 µM)
0: all assays above
